{
  "sequences": {"note": "Chains of the proteins cited; added tags and fusions are not shown.", "UniProt Q9UBL3": "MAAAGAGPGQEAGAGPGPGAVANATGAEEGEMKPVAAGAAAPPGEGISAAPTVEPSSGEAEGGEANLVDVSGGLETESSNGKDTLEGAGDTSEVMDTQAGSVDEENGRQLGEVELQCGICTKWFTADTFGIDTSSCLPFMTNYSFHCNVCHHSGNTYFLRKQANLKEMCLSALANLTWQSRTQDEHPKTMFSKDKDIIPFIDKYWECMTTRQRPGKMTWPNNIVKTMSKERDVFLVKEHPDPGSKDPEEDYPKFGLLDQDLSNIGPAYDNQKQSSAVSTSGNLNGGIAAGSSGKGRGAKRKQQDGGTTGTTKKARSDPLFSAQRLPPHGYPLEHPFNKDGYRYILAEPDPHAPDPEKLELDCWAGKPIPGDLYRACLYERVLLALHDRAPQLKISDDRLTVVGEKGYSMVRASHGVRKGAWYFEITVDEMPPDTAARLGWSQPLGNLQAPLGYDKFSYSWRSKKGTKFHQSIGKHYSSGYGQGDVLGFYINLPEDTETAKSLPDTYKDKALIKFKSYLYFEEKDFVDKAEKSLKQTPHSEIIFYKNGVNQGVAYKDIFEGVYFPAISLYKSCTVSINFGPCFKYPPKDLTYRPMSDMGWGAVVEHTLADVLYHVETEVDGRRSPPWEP", "UniProt O14744": "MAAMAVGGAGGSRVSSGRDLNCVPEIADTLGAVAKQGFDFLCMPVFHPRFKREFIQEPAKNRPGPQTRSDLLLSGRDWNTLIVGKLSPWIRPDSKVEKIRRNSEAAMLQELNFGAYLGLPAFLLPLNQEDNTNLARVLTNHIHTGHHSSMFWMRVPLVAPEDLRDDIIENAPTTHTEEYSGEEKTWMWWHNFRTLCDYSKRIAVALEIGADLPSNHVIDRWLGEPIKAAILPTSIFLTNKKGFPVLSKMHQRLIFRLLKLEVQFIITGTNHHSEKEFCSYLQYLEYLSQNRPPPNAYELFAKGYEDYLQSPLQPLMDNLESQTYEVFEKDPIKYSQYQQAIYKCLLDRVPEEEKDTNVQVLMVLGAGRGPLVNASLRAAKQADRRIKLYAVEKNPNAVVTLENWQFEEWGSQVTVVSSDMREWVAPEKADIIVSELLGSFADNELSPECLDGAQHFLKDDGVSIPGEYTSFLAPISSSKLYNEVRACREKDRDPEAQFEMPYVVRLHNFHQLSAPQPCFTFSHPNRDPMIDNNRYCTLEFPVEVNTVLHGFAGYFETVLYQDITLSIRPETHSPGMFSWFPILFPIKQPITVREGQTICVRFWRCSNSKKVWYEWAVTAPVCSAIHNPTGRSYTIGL"},
  "source": "paper PMC5589623",
  "key": {"[1]": {"target": "ASH2 (human (endogenous in A549)) (UniProt Q9UBL3)", "assay": "Re-ChIP (sequential chromatin immunoprecipitation); A549 cells cross-linked with 1% formaldehyde, sonicated; 1st round pull down with ASH2, WDR5, HCFC1 or RBBP5 antibody, 2nd round with PRMT5 antibody; read out by qPCR of VIM (-1 kb); also in cells depleted of GFP (ctr) or SHARPIN"}, "[2]": {"target": "T1, SHARPIN (Shank-associated RH domain interacting protein) (human (endogenous in A549)) (UniProt Q9H0F6)", "T1 sequence": "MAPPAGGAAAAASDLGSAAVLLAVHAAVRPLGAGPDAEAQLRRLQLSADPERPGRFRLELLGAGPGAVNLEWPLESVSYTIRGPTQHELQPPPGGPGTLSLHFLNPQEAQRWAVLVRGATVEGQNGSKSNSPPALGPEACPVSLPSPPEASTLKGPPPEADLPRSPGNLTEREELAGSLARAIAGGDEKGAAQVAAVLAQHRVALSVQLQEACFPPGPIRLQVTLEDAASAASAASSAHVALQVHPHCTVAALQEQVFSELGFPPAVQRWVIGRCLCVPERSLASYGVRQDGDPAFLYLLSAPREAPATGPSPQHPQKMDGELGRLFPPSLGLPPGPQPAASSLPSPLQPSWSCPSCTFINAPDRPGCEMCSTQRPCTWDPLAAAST", "assay": "co-IP; A549 cell lysates, endogenous proteins; protein A-agarose beads with SHARPIN or PRMT5 rabbit antibody, 4°C overnight, no-antibody (NA) control; western blot"}},
  "note": "No constants are given. Whether binding was seen depends on the method and setting. For some assays here: In cells and extracts the contact can be indirect. Some results given as binding are weak or reduced against the parent protein; the word gives no strength.",
  "data": [
    {"substance": "PRMT5 (Protein arginine methyltransferase 5) (from UniProt O14744 1-637) (enzyme)", "values": [
      {"measurement": "binding", "setting": "[1]", "result": "binds"},
      {"measurement": "binding", "setting": "[2]", "result": "binds"}
    ]}
  ]
}
